# Data published in US20060013780A1, “N,N'-dialkyl derivatives of polyhydroxyalkyl alkylenediamines” (priority 2004, published 2006).
# Some results were stated once for a whole list of compounds, not compound by compound.
# Experiment: Dynamic surface tension, maximum bubble pressure method
# Assay type: physicochemical
# Settings: Table 4 data; strong at low bubble rates
# Experimental: Solutions in distilled and deionized water of the surfactants of the invention were prepared. […] In a practical sense, high surface creation rates refer to rapid processes such as a spray or roller-applied coating, a high speed printing operation, or the rapid application of an agricultural product or a cleaner.
structure (smiles),measurement,value
"CCCCCCN(CCN(CCCCCC)C[C@H](O)[C@@H](O)[C@H](O)[C@H](O)CO)C[C@H](O)[C@@H](O)[C@H](O)[C@H](O)CO [DHDGEDA, N,N′-dihexyl-N,N′-bis(1-deoxyglucityl)-1,2-diaminoethane]",dynamic surface tension reduction in words,strong
